Reference: patent US8729088B2, “Toll-like receptor modulators and treatment of diseases” (The Regents of the University of California, priority 2009, dated 2014)
Some of these results come from one statement about several compounds together. At least one compound was matched to its structure with a doubt left.

Test system: pro-inflammatory cytokines (IL-6, TNF-α) in sera
Experiment: In vivo kinetics of pro-inflammatory cytokine induction after intravenous injection
Parameters: species or system mouse
Conditions: i.v.; 40 nmol (4a) or 200 nmol per animal
Procedure: The pharmacokinetics of pro inflammatory cytokine induction by TLR7 conjugates was examined using 6- to 8-week old C57BL/6 mice. […] Blood samples were collected 2, 4, 6, 24 or 48 hours after injections. Sera were separated and kept at −20° C. until use.

Row | Compound | duration of cytokine induction
1 | CCCCCCCC/C=C\CCCCCCCC(=O)OCC(COP(=O)(O)OCCNC(=O)c1ccc(Cn2c(=O)[nH]c3c(N)nc(OCCOC)nc32)cc1)OC(=O)CCCCCCC/C=C\CCCCCCCC (centres unmarked) [Compound 6, 2-(4-((6-amino-2-(2-methoxyethoxy)-8-oxo-7H-purin-9(8H)-yl)methyl)benzamido)ethyl 2,3-bis(oleoyloxy)propyl phosphate] | up to 6 hours
2 | CCCCCCCC/C=C\CCCCCCCC(=O)OCC(COP(=O)(O)OCCNC(=O)CCc1cn(CCOCCOCCOCCOCCOCCOCCOCCOCCOCCOCCNC(=O)c2ccc(Cn3c(O)nc4c(N)nc(OCCOC)nc43)cc2)nn1)OC(=O)CCCCCCC/C=C\CCCCCCCC (centres unmarked) [Compound 9, 2-(3-(1-(1-(4-((6-amino-8-hydroxy-2-(2-methoxyethoxy)-9H-purin-9-yl)methyl)phenyl)-1-oxo-5,8,11,14,17,20,23,26,29,32-decaoxa-2-azatetratriacontan-34-yl)-1H-1,2,3-triazole-4-yl)propanamido)ethyl 2,3-bis(oleoyloxy)propyl phosphate] | up to 6 hours
